For 1 sequence, binding signal results are on record in article PMC5996148.

Several values for one entry are separate records, joined by “and”; a condition that tells them apart may be missing. Equal values may be shown once. Some of the results follow. For some assays here: Construct or isoform of the protein are uncertain.

Holding throughout (assay): protein microarray (ProtoArray v5.0), streptavidin-Alexa Fluor 647
Details in all cases: 3'-biotin; 20 mM Tris (pH 7.5), 5 mM MgCl2, 100 mM KCl, 0.1% Tween-20, A/T-rich and random oligonucleotide blockers; temperature not stated; high values mean tight binding

The target in assay [1] is CA9 (UniProt Q16790).
Assay [2] has as its system CACNG1 (human).
The target in assay [3] is CACYBP (UniProt Q9HB71).
Assay [4] relates to CALB1 (human).
The subject of assay [5] is CALM2 (human).
The target of assay [6] is CALM3 (UniProt P0DP25).
The test system of assay [7] is CAMK1D (human).
Assay [8] has as its system CAMK4 (human).
For assay [9], the system named is CANT1 (human).
For assay [10], the system named is CAPNS2 (human).
Assay [11] has as its system CAPS (human).
Assay [12] concerns CAPZA2 (human).
For assay [13], the target named is T1, CARS (UniProt P49589).
T1 sequence: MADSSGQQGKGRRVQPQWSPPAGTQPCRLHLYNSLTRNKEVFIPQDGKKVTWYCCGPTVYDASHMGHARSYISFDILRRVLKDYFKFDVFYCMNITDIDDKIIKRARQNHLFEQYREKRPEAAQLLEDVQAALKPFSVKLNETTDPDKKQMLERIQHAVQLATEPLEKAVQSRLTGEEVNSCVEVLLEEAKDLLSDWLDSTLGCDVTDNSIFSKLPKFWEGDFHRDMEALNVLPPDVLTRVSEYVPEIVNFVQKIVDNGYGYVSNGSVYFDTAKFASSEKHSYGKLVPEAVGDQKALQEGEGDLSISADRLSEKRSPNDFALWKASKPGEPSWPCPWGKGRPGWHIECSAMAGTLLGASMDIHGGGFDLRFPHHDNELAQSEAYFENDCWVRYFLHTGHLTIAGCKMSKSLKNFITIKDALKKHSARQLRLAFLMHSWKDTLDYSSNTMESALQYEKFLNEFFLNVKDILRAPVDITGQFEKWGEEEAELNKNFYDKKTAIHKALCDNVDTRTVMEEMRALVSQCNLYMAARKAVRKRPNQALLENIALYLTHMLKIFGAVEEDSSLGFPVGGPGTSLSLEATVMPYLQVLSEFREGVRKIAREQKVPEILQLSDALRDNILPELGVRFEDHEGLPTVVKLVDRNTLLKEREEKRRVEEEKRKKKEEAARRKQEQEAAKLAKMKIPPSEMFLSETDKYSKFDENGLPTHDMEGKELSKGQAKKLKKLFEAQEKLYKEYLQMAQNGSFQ

For assay [14], the system named is CBS (human).
Assay [15] has as its target CBX5 (UniProt P45973).
For assay [16], the system named is CCDC107 (human).
Assay [17] concerns the target CCDC131 (UniProt O60293).
The test system of assay [18] is CCDC32 (human).
Assay [19] deals with CCDC40 (human).
Assay [20] concerns the target T2, CCDC43 (UniProt Q96MW1).
T2 sequence: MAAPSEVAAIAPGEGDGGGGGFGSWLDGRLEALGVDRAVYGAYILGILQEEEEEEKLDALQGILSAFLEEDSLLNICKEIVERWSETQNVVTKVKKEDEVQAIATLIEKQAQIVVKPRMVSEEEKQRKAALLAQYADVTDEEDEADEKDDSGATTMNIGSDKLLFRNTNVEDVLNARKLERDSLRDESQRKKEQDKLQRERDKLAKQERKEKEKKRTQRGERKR

For the sequence “GGTGACAGGGGTATGGGGAGGGG [G4-2 biotinylated (Ct1)]”, the binding signal in assay [1] is -0.394 z-score; in [2], -0.377 z-score; in assay [3], 4.32 z-score; in [4], -0.374 z-score; in assay [5], -0.386 z-score; in assay [6], -0.385 z-score. For the same sequence, the binding signal in assay [7] was -0.387 z-score and -0.378 z-score; in [8], -0.391 z-score; in assay [9], -0.377 z-score; in assay [10], -0.391 z-score; in assay [11], -0.406 z-score and -0.4 z-score; in assay [12] it was -0.382 z-score. Further, the binding signal in [13] is 4.7 z-score; in assay [14], -0.394 z-score; in [15], 3.82 z-score; in assay [16], -0.394 z-score; in [17], 3.5 z-score; in [18], -0.404 z-score. For the same sequence, the values for the binding signal in [19] and in [20] were -0.38 z-score and 4.18 z-score, respectively.
